Laboratory results: PubChem BioAssay AID1671190 (National Center for Advancing Translational Sciences (NCATS), 2021)
Out of some 580,000 compounds screened, about 6,100 (1.1%) were called active. Inconclusive results, whose numbers are uncertain, are shown with a selection of clear calls. The call rests on the fitted dose curve; in most records, active means well fitted inhibition curve with a large enough effect; inconclusive means small, poorly fitted or top-dose-only effect, or another doubt; inactive means no such curve, though single readings can be large or run the other way. Potencies beside an inconclusive call are fits to weak or partial responses and may not hold up.

Amino acid sequences for entries named in this document (tags omitted). A change or cut given only in a name is not applied to a line headed by its entry.
UniProt P18054: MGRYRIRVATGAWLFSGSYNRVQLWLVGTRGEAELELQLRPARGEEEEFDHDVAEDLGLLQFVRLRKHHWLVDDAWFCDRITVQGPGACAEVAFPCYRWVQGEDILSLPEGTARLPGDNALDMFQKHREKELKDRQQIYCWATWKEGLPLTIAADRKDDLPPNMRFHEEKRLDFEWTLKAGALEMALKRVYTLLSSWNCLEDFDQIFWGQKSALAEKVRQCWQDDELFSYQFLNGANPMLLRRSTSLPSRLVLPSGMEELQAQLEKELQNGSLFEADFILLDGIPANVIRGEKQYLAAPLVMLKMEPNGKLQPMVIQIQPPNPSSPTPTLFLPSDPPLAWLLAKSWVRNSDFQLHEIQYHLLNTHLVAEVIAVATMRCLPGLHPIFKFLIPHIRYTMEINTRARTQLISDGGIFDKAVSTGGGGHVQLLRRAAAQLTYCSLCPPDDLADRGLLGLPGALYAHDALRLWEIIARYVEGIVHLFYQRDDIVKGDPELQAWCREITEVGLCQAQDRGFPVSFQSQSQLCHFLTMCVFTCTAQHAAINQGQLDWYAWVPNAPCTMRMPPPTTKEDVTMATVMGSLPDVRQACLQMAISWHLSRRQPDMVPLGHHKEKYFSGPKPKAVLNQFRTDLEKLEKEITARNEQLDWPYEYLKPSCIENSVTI

Each compound was assayed against Polyunsaturated fatty acid lipoxygenase ALOX12 (Homo sapiens) (UniProt P18054) (assay: Primary qHTS assay for inhibitors of human arachidonate 12S-lipoxygenase (ALOX12): Round 2). Conditions: purified 12hLO, xylenol orange hydroperoxide absorbance; activity change, negative = inhibition: at 108 µM (top of the series) unless noted.
Outline: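 Purified human 12hLO (150 nM final) in 25 mM Hepes, 0.01% Triton X-100, pH 7.0 was preincubated 15 min at room temperature with compound. Then 40 uM arachidonic acid was added, 30 min. Hydroperoxide was read by Fe-XO absorbance ratio 573/405 nm.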
On the % scale 0 is the no-effect control and ±100 the full control effect; potency means the concentration at half of the fitted maximal effect.

Compound	activity change, negative = inhibition	Potency
Oc1ccc(-c2c(-c3ccsc3)sc3ccccc23)cc1	inactive: -10.1%	
COC(=O)CCSc1cc(NCCOC(C)=O)c([N+](=O)[O-])c2nonc12		inconclusive: 126 µM [inhibitor, partial curve, poor fit]
COC(=O)C1Sc2[nH]c(=O)sc2C2c3ccccc3OC(=O)C12 (stereo not drawn)	inactive: 0%	
COc1ccccc1CNC(=O)CSc1ccsc1[N+](=O)[O-]	inactive: -4.03%	
CCN1C(=O)CCC2(C(=O)N3CCOCC3)CCCC=C12 (stereo not drawn)		inconclusive: 7.08 µM [inhibitor, full curve, poor fit]
Cc1cccc(NC(=S)N/N=C/c2cccc(O)c2)c1C		inconclusive: 44.7 µM [inhibitor, partial curve, poor fit]
COc1ccc(-n2cc(-c3ccc4c(c3)OCO4)n(CC(=O)Nc3cccc(C)c3)c2=O)cc1		inconclusive: 141 µM [inhibitor, single point]
COc1ccc2sc(N(CCN(C)C)C(=O)c3cc(Cl)sc3Cl)nc2c1		inconclusive: 56.2 µM [inhibitor, partial curve, poor fit]
CCN(CC)c1ncnc2sc3c(c12)CCC3		inconclusive: 44.7 µM [inhibitor, partial curve, poor fit]
O=C(CC1N=C2c3ccccc3N=C(SCC(=O)Nc3ccc(F)cc3)N2C1=O)NCc1ccc2c(c1)OCO2 (stereo not drawn)		inconclusive: 56.2 µM [inhibitor, partial curve, poor fit]
Cc1c(F)cccc1NC(=O)CCC(=O)O	inactive: 0% [at 57.4 µM]	
CN1C(=O)[C@@]2(O[C@H]3[C@H]4C=C[C@@H]([C@H]5C(=O)N(Cc6ccccc6)C(=O)[C@@H]45)N3C3=C2C(=O)CC3)c2ccccc21	inactive: 6.49%	
CSc1ncc(Cl)c(C(=O)N(Cc2ccc(C(C)C)cc2)C2CCS(=O)(=O)C2)n1 (stereo not drawn)		inconclusive: 56.2 µM [inhibitor, partial curve, poor fit]
Cc1ccc(C)c(N(C(=O)Cn2nnc3ccccc32)C(C(=O)NCc2ccco2)c2ccncc2)c1 (stereo not drawn)	inactive: 25.3%	
CC(=O)Oc1cccc(N2C(=O)CC(Nc3ccc(N4CCOCC4)cc3)C2=O)c1 (stereo not drawn)		active: 35.5 µM
C#CCOCCOCCOCCNc1nc(N2CCN(C(=O)C(Cc3ccc(O)cc3)n3cc(C(N)C(C)CC)nn3)CC2)nc(N2CCN(C(=O)C(Cc3ccc(O)cc3)n3cc(C(N)C(C)CC)nn3)CC2)n1 (stereo not drawn)	inactive: -9.98%	
CCOC(=O)C1=CCN(S(=O)(=O)c2ccc(C)cc2)C1c1cccc(C)c1 (stereo not drawn)		inconclusive: 50.1 µM [inhibitor, partial curve, poor fit]
O=C(NCCN1CCOCC1)c1cc2sccc2n1Cc1ccc(Cl)cc1		inconclusive: 44.7 µM [inhibitor, partial curve, poor fit]
COCCN1C(=O)N(c2ccccc2)C(=O)C1CC(=O)Nc1cc(OC)cc(OC)c1 (stereo not drawn)		inconclusive: 35.5 µM [inhibitor, partial curve, poor fit]
CN1CCN(c2ncc3nc(-c4cccs4)c(=O)n(Cc4ccc(F)cc4)c3n2)CC1		inconclusive: 35.5 µM [inhibitor, partial curve, poor fit]
COc1ccc(O)c(CN2CCN(C/C=C/c3ccccc3)CC2)c1		inconclusive: 25.1 µM [inhibitor, full curve]
Cc1noc(C)c1CNCC1(COc2cccnc2)C[C@@H](O)[C@@H](O)C1 (stereo partly drawn)		active: 12.6 µM
CN1CCN2c3ccccc3Cc3ccccc3[C@@H]2C1		inconclusive: 31.6 µM [inhibitor, single point]

Compound	activity change, negative = inhibition	Potency
COc1cccc(C(C)(O)c2nc(-c3ccc(N(C)C)cc3)cs2)c1 (stereo not drawn)		inconclusive: 112 µM [inhibitor, single point]
Cc1ccc(S(=O)(=O)Nc2nc(C)c(C(=O)Nc3ccccc3)s2)cc1		inconclusive: 50.1 µM [inhibitor, partial curve]
N#C/C(=C/c1ccc(C#N)cc1)C(=O)Nc1ccc(N2CCOCC2)cc1		inconclusive: 39.8 µM [inhibitor, partial curve, poor fit]
Cc1ccc2c(c1)C(=O)N1[C@H]3c4cc(C)ccc4OC[C@@H]3[C@H](c3ccccc3)[C@]1(C)C(=O)N2	inactive: -18.1%	
O=C(COC(=O)CCCc1nc2ccccc2s1)Nc1ncc(Cl)cc1Cl		inconclusive: 100 µM [inhibitor, partial curve, poor fit]
COc1cc(OC)c2c(c1C(CCN1CCOCC1)c1ccc(N(C)C)cc1)OC(=O)CC2c1ccc(N(C)C)cc1 (stereo not drawn)		inconclusive: 100 µM [inhibitor, single point]
O=C(CSc1nc2ccccc2nc1N1CCCC1)Nc1ccc(Cl)cc1	inactive: -5.98%	
CCN(CC)c1ccc(NC(=O)CN2C(=O)c3cccnc3Oc3ccc(Cl)cc32)c(C)c1		inconclusive: 112 µM [inhibitor, partial curve, poor fit]
CCCOc1ccc(C2NC(=S)NC(C)=C2C(=O)c2ccccc2)cc1OC (stereo not drawn)		inconclusive: 44.7 µM [inhibitor, partial curve, poor fit]
O=C(O)c1ccc(-n2nncc2-c2ccco2)cc1	inactive: -5.82%	
Cc1cccc(/C=C2/S/C(=N/N=C3\CC4CCC3(C)C4(C)C)NC2=O)c1 (stereo not drawn)	inactive: 0.162%	
Cc1csc(NC(=O)CCc2ncc(-c3ccccc3F)o2)n1	inactive: 2.09%	
CN1CCC(NC(=O)C2(C)CCN2Cc2ccc3ccccc3c2)CC1 (stereo not drawn)	inactive: -22.5%	
CCOC(=O)Cn1c(=O)n(CC2CCCO2)c2nc(-c3c(F)cccc3Cl)nc(C(N)=O)c21 (stereo not drawn)		inconclusive: 0.447 µM [inhibitor, full curve, poor fit]
Cc1ccccc1-n1c(=O)/c(=C\c2ccco2)s/c1=C(/C#N)C(=O)Nc1ccccc1		active: 35.5 µM
CCc1cccc(NS(=O)(=O)c2cc(-c3cnc(C)o3)ccc2OC)c1		inconclusive: 63.1 µM [inhibitor, partial curve, poor fit]
O=C(CCc1c[nH]c2ccccc12)N1CCCC1c1ccc(F)cc1 (stereo not drawn)	inactive: -23.8%	
Cc1ncsc1C(=O)N1CCC2(CC1)OC(=O)N(Cc1ccccc1)C2(C)c1cccnc1 (stereo not drawn)	inactive: 4.36%	
COc1cccc(Cn2c(NCc3ccco3)nc3c2c(=O)n(C)c(=O)n3C)c1	inactive: -1.15%	
O=C(NCCn1ccc2ccccc21)c1ccc(S(=O)(=O)N2CCOCC2)cc1		inconclusive: 141 µM [inhibitor, partial curve, poor fit]
CC(=O)c1ccc(N(CC(=O)NCc2ccc3c(c2)OCO3)C(=O)c2csnn2)cc1		inconclusive: 44.7 µM [inhibitor, partial curve]
COc1ccccc1C(=O)Nc1ccc2oc(-c3cccc(I)c3)nc2c1		inconclusive: 56.2 µM [inhibitor, partial curve, poor fit]
Nc1cccc2c1C(=O)N(C(=O)c1ccc(S(=O)(=O)N3CCCCCC3)cc1)C2=O		inconclusive: 50.1 µM [inhibitor, partial curve, poor fit]

Gathered by group, the compounds so far with a nitro group on carbon.
Compound	activity change, negative = inhibition	Potency
COC(=O)CCSc1cc(NCCOC(C)=O)c([N+](=O)[O-])c2nonc12		inconclusive: 126 µM [inhibitor, partial curve, poor fit]
COc1ccccc1CNC(=O)CSc1ccsc1[N+](=O)[O-]	inactive: -4.03%	

Further structures.

Compound	activity change, negative = inhibition	Potency
COCc1nn(CC(=O)N(C)Cc2nccs2)c(=O)n1-c1ccccc1	inactive: -17.8%	
O=C(NCCNS(=O)(=O)c1cccc2nonc12)c1ccc2cc[nH]c2c1	inactive: 8.49%	
CC(C)c1ccc(C2(O)C(=O)Nc3cc(Br)ccc32)c(O)c1 (stereo not drawn)		inconclusive: 79.4 µM [inhibitor, partial curve, poor fit]
COc1ccc(-c2cc(C(=O)N(C)Cc3ccccc3)c3ccccc3n2)cc1		inconclusive: 100 µM [inhibitor, single point]
CC1(C)CC(NC(=O)CCNC(=O)N2CCN(C(=O)c3cc4ccccc4[nH]3)CC2)CC(C)(C)N1	inconclusive: -37.5% [inhibitor]	
COc1cc2c(cc1NC(=O)CN1CCN(S(=O)(=O)c3ccc(C)cc3)CC1)oc1ccccc12	inactive: 30%	
CSc1ccc(NC(=O)c2cc(-c3ccc[nH]3)n[nH]2)cc1		inconclusive: 17.8 µM [inhibitor, full curve]
Cc1cccc(C)c1N(CC(=O)NC1CCCCC1)C(=O)c1csnn1		inconclusive: 89.1 µM [inhibitor, single point]
O=C(CC1N=C2c3ccccc3N=C(SCc3cccc(Cl)c3)N2C1=O)NC1CCCCC1 (stereo not drawn)		inconclusive: 44.7 µM [inhibitor, partial curve, poor fit]
Cc1cc(C)c2c(=O)n(CC(=O)Nc3ccccc3)c(=O)n(-c3ccccc3)c2n1	inactive: -7.48%	
COc1ccc2c(CC(=O)N(C)CC3COc4ccccc4O3)coc2c1 (stereo not drawn)		inconclusive: 1.78 µM [inhibitor, full curve, poor fit]
CSc1ncc(C(=O)Nc2ccc(Cl)cc2)c(C)n1	inactive: -29.9%	
O=C(CCCn1c(=S)[nH]c2ccsc2c1=O)NCCc1ccccc1	inactive: -35.5%	
O=C(NC1CCN(c2cc(-c3ccc(Cl)cc3)[nH]n2)CC1)c1ccncc1	inactive: 33.6%	
O=C(CC1CCCC1)NCCCNC(=O)CC1CCCC1	inactive: 40%	
COc1cc(OC)c(NC(=O)c2nc(-c3ccncc3)no2)cc1Cl		inconclusive: 112 µM [inhibitor, single point]
COCCn1c(SCC(=O)Nc2ccc(Cl)c(S(=O)(=O)N(C)C)c2)nc2ccccc21	inactive: 3.74%	
O[C@@H]1CCN2Cc3ccccc3N=C12		inconclusive: 70.8 µM [inhibitor, partial curve, poor fit]
O=[N+]([O-])c1ccc(Oc2ccc3ccncc3c2)cc1C(F)(F)F	inactive: 36.3%	
COc1ccc(OCc2nnc(SCC(=O)O)n2N)cc1		inconclusive: 39.8 µM [inhibitor, single point]
Cc1oc(C(=O)O)cc1COc1cccc2ccccc12	inactive: 0%	
COc1ccc(CN2CCSCC2)cc1C		inconclusive: 0.355 µM [inhibitor, full curve, poor fit]

Some of the entries so far, with each value named:
O=C(CC1CCCC1)NCCCNC(=O)CC1CCCC1
  activity change, negative = inhibition: inactive: 40%
COc1cc(OC)c(NC(=O)c2nc(-c3ccncc3)no2)cc1Cl
  Potency: inconclusive: 112 µM [inhibitor, single point]
